Protein sequences, listed by entry. Tags and fused reporters are not part of them.
UniProt O75832: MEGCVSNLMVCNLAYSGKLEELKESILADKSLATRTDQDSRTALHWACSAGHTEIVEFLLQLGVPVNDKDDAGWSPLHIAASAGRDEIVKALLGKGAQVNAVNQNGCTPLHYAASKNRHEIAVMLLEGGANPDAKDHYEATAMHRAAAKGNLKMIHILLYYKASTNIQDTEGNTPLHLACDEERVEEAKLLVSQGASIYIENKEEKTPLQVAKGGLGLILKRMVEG
UniProt Q9NT62: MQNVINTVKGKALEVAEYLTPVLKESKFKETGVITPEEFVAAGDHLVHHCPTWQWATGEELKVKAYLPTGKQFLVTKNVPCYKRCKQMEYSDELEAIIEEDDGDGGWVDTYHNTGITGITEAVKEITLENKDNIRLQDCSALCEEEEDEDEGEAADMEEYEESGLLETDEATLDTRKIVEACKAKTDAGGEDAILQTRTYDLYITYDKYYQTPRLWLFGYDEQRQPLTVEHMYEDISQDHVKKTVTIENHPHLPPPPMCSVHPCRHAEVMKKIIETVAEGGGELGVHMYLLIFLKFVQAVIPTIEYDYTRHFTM
UniProt Q92688: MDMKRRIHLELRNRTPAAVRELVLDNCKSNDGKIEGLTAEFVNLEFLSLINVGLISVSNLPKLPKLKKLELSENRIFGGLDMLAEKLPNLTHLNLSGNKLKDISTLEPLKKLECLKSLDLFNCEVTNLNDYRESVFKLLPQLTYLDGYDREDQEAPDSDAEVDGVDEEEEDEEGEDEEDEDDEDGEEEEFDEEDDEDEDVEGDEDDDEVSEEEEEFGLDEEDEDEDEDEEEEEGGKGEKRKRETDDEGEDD
UniProt P46108: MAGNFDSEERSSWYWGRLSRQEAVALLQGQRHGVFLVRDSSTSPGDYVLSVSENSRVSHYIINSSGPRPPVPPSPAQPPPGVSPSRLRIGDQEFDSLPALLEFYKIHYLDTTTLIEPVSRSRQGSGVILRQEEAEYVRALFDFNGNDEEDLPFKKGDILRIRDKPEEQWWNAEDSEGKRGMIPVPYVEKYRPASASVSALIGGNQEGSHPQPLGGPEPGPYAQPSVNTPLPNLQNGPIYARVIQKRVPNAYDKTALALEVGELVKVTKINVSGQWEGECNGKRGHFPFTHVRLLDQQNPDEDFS
UniProt P38936: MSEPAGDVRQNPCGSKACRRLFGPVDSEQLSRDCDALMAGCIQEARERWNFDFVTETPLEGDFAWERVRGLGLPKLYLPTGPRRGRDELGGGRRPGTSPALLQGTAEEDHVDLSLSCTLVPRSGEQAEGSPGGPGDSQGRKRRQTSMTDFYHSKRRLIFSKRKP
UniProt P61011: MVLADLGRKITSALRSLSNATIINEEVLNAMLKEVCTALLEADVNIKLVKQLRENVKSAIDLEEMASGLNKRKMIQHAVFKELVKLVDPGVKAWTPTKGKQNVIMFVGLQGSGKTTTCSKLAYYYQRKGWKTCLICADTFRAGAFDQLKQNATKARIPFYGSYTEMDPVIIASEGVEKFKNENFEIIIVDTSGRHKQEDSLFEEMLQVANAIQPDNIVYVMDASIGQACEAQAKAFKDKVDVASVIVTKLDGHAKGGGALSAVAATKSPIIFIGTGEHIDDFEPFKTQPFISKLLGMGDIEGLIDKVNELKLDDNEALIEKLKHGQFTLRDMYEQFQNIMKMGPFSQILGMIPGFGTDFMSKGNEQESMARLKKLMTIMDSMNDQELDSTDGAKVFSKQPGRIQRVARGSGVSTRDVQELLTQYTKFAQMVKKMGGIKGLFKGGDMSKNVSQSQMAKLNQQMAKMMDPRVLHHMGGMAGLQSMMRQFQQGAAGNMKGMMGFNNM
UniProt P50579: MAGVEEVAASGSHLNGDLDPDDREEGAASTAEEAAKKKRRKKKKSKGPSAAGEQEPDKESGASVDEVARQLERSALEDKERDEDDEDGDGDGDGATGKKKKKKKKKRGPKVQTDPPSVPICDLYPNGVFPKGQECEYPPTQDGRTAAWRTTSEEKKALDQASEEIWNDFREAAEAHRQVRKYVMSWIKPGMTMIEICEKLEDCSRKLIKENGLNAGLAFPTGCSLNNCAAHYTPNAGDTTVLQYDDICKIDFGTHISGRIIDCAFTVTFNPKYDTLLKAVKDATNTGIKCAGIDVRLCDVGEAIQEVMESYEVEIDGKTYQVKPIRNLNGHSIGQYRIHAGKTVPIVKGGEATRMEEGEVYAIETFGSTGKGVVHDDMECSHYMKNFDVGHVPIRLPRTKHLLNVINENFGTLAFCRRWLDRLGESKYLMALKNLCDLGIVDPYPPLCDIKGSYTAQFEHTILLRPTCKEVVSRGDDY
UniProt P51617: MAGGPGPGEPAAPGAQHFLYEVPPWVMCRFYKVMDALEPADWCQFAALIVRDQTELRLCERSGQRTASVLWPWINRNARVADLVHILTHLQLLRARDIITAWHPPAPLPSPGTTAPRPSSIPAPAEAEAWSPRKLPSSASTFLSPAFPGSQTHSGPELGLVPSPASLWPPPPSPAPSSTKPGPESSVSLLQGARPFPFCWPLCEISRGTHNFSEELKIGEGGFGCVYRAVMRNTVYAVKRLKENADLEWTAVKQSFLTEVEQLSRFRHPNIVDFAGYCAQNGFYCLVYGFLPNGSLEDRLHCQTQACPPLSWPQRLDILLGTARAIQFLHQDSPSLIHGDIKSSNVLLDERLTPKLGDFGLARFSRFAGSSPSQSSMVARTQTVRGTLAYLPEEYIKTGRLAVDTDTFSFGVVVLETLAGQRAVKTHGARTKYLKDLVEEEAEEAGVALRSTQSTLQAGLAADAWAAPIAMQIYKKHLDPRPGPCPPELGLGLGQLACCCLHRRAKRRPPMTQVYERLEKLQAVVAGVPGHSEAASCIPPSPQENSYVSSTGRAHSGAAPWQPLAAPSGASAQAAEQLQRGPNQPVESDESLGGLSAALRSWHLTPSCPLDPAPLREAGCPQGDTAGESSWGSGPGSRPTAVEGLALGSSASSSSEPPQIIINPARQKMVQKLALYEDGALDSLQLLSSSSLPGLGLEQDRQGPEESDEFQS
UniProt Q9UHD2: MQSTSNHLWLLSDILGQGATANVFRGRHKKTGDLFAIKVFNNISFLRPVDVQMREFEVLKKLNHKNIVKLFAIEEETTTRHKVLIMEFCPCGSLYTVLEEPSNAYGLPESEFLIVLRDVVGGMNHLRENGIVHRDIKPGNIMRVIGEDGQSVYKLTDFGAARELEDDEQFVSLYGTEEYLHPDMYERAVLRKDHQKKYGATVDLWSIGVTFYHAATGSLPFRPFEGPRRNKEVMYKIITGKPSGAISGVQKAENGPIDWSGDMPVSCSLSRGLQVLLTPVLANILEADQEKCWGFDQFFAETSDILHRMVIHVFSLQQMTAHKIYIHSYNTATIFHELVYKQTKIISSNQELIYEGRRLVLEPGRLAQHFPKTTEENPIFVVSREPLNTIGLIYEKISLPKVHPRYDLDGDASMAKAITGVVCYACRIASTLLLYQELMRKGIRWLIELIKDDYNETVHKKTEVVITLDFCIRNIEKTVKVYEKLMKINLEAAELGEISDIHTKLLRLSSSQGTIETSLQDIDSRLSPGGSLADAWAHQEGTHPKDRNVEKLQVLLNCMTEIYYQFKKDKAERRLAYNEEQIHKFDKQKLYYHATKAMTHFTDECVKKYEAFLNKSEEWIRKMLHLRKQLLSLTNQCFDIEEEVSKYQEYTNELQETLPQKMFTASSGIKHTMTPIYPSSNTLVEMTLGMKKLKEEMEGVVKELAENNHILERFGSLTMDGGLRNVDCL

In article PMC4764573:

Each substance was assayed against mmCRM1 (mouse CRM1), biotinylated version carrying an Avi-tag (mouse) (UniProt Q6P5F9) (assay: affinity purification with mass spectrometry; as a1, with cytosolic HeLa S100 extract on immobilised CRM1 (taken as mmCRM1), with 5 μM RanGTP (hsRanQ69L^5-180); only the target purified).
“26S proteasome non-ATPase regulatory subunit 10 (HeLa extract) (from UniProt O75832 1-226)” was tested, and the binding was “no binding”. In the case of “ATG8-conjugating enzyme ATG3 (HeLa extract) (from UniProt Q9NT62 1-314)”, the binding is reported as “binds”. “Acidic leucine-rich nuclear phosphoprotein 32 family member B (HeLa extract) (from UniProt Q92688 1-251)” was tested, and the binding was “no binding”. “Adapter molecule CRK (HeLa extract) (from UniProt P46108 1-304)” was tested, and the binding was “no binding”. For “Cyclin-dependent kinase inhibitor 1 (HeLa extract) (from UniProt P38936 1-164)”, the binding was “no binding”. In the case of “Raf-1 (HeLa extract) (from UniProt P04049 1-648) (enzyme)”, the binding is reported as “binds”. “SRP54 (HeLa extract) (from UniProt P61011 1-504)” was tested, and the binding was “binds”. With “co-translational methionine aminopeptidase MetAP2 (HeLa extract) (from UniProt P50579 1-478) (enzyme)” the binding was “binds”. In the case of “interleukin-1 receptor-associated kinase 1 (HeLa extract) (from UniProt P51617 1-712) (enzyme)”, the binding is reported as “binds”. With “tank-binding kinase 1 (HeLa extract) (from UniProt Q9UHD2 1-729) (enzyme)” the binding was “binds”.

These substances were tested against mmCRM1 (mouse CRM1), biotinylated version carrying an Avi-tag (mouse) (UniProt Q6P5F9) (assay: affinity purification with mass spectrometry; 500 pmoles biotinylated Avi-tagged CRM1 (taken as mmCRM1) on 20 μl streptavidin agarose; 1 ml Xenopus laevis oocyte extract (diluted 1:5, depleted of nuclear transport receptors on Phenyl-Sepharose, RNAse A treated) with 5 μM RanGTP (hsRanQ69L^5-180); 3 hr at 4°C; 20 mM HEPES/ NaOH pH 7.5, 90 mM KAc, 2 mM MgOAc, 250 mM Sucrose, 5 mM DTT; minus CRM1 and minus RanGTP controls; only the target purified).
For “Arp2/3-1b of the Xenopus oocyte extract (from UniProt Q6GNU1 1-369)”, the binding was “binds weakly”.

No constants are given. Whether binding was seen depends on the method and setting. Binding seen in cells or lysates may run through a third protein. These calls come from enrichment with a bait or labelling near it, and not all partners need be listed. For some assays here: No binding means not detected with the bait.
